The source gives many values for each of these; only a part stands here.
Test system: CVD (CHD or stroke)
Test: Meta-analysis of CARE and WOSCOPS combined, synergy index, CVD endpoint
Format: in vivo, human
From the text: Tables 4-5 provide meta-analyses of CARE and WOSCOPS combined (2nd section of each table) for two endpoints (CHD and CVD) and three genetic models (dominant, recessive, and additive), as well as logistic regression analyses of CARE (3rd section of each table) and WOSCOPS (4th section of each table) individually.
Tables 12 and 17 provide results of meta-analysis of the CARE and WOSCOPS sample sets combined by direct genotyping and by imputing genotypes.
“P” indicates the p-value, and “P(R)” (or “P.R.”) indicates the p-value random effect. Both of these are p-values corresponding to a statistical test of whether the combined synergy index is equal to one but use different assumptions to derive the p-value. “P” is calculated using a fixed effects model, and “P(R)” is calculated using a random effects model.
“OR” indicates the odds ratio (synergy index) calculated from a fixed effects model, and “OR(R)” (or “OR.R.”) indicates the odds ratio (synergy index) calculated from a random effects model.

[1] = rs6774353 allele A GENOTYPIC Imputed
[2] = rs6781670 allele C GENOTYPIC Imputed
[3] = rs6786431 allele A GENOTYPIC Imputed
[4] = rs6789091 allele T GENOTYPIC Imputed
[5] = rs6791296 allele T ADDITIVE Imputed
[6] = rs6792662 allele G DOMINANT Imputed
[7] = rs6797574 allele G GENOTYPIC Imputed
[8] = rs6797882 allele G GENOTYPIC Imputed
[9] = rs6805139 allele G DOMINANT Imputed
[10] = rs6806043 allele C ADDITIVE Imputed
[11] = rs6806043 allele C GENOTYPIC Imputed
[12] = rs6850716 allele C GENOTYPIC Imputed
[13] = rs6867153 allele A RECESSIVE Imputed
[14] = rs6871041 allele G DOMINANT Imputed
[15] = rs6888012 allele A RECESSIVE Imputed
[16] = rs6908481 allele C RECESSIVE Imputed
[17] = rs7032231 allele A ADDITIVE Imputed
[18] = rs7067638 allele T DOMINANT Imputed
[19] = rs7077799 allele A DOMINANT Imputed
[20] = rs7082163 allele A ADDITIVE Imputed
[21] = rs7082163 allele A DOMINANT Imputed
[22] = rs7089661 allele C DOMINANT Imputed
[23] = rs7101319 allele C ADDITIVE Imputed
[24] = rs7101319 allele C DOMINANT Imputed
[25] = rs7134262 allele T GENOTYPIC Imputed
[26] = rs7134262 allele T RECESSIVE Imputed
[27] = rs7134671 allele T GENOTYPIC Imputed
[28] = rs7138300 allele C ADDITIVE Imputed
[29] = rs7138300 allele C DOMINANT Imputed
[30] = rs7138300 allele C GENOTYPIC Imputed
[31] = rs7163931 allele G GENOTYPIC Imputed
[32] = rs7163931 allele G RECESSIVE Imputed
[33] = rs7171486 allele G DOMINANT Genotyped
[34] = rs7172611 allele G GENOTYPIC Imputed
[35] = rs7172611 allele G RECESSIVE Imputed
[36] = rs7172689 allele T GENOTYPIC Imputed
[37] = rs7172689 allele T RECESSIVE Imputed
[38] = rs7175701 allele C GENOTYPIC Imputed
[39] = rs7180245 allele A GENOTYPIC Imputed
[40] = rs7180245 allele A RECESSIVE Imputed
[41] = rs7220603 allele A ADDITIVE Genotyped

Compound: CC[C@H](C)C(=O)O[C@H]1C[C@H](O)C=C2C=C[C@H](C)[C@H](CC[C@@H](O)C[C@@H](O)CC(=O)O)[C@H]21 [Pravastatin, pravastatin]
- OR [1]: 2.0921
- OR(R) [1]: 2.0921
- OR [2]: 2.0683
- OR(R) [2]: 2.0683
- OR [3]: 2.0503
- OR(R) [3]: 2.0503
- OR [4]: 2.0503
- OR(R) [4]: 2.0503
- OR [5]: 0.6284
- OR(R) [5]: 0.6284
- OR [6]: 1.7002
- OR(R) [6]: 1.7002
- OR [7]: 2.0503
- OR(R) [7]: 2.0503
- OR [8]: 2.0585
- OR(R) [8]: 2.0585
- OR [9]: 1.6957
- OR(R) [9]: 1.6957
- OR [10]: 1.4041
- OR(R) [10]: 1.4041
- OR [11]: 2.1162
- OR(R) [11]: 2.1162
- OR [12]: 3.2642
- OR(R) [12]: 3.2642
- OR [13]: 0.5455
- OR(R) [13]: 0.5455
- OR [14]: 0.6351
- OR(R) [14]: 0.6351
- OR [15]: 0.5455
- OR(R) [15]: 0.5455
- OR [16]: 1.8461
- OR(R) [16]: 1.8461
- OR [17]: 1.2986
- OR(R) [17]: 1.3011
- OR [18]: 1.6722
- OR(R) [18]: 1.6722
- OR [19]: 1.5609
- OR(R) [19]: 1.5609
- OR [20]: 1.6619
- OR(R) [20]: 1.6619
- OR [21]: 1.7473
- OR(R) [21]: 1.7473
- OR [22]: 1.5612
- OR(R) [22]: 1.5612
- OR [23]: 1.6533
- OR(R) [23]: 1.6533
- OR [24]: 1.7359
- OR(R) [24]: 1.7359
- OR [25]: 1.9228
- OR(R) [25]: 1.9228
- OR [26]: 2.1112
- OR(R) [26]: 2.0864
- OR [27]: 1.9952
- OR(R) [27]: 1.9952
- OR [28]: 0.7392
- OR(R) [28]: 0.7392
- OR [29]: 0.6285
- OR(R) [29]: 0.6285
- OR [30]: 0.574
- OR(R) [30]: 0.574
- OR [31]: 3.4509
- OR(R) [31]: 3.4509
- OR [32]: 3.317
- OR(R) [32]: 3.317
- OR [33]: 0.6976
- OR(R) [33]: 0.69
- OR [34]: 3.4591
- OR(R) [34]: 3.4591
- OR [35]: 3.317
- OR(R) [35]: 3.317
- OR [36]: 3.4591
- OR(R) [36]: 3.4591
- OR [37]: 3.317
- OR(R) [37]: 3.317
- OR [38]: 2.9103
- OR(R) [38]: 2.9103
- OR [39]: 3.4591
- OR(R) [39]: 3.4591
- OR [40]: 3.317
- OR(R) [40]: 3.317
- OR [41]: 0.6874
- OR(R) [41]: 0.6874
- OR (rs7282518 allele T ADDITIVE Imputed): 1.6157

— patent US10563263B2, “Genetic polymorphisms associated with statin response and cardiovascular diseases, methods of detection and uses thereof” (CELERA CORPORATION, priority 2010, dated 2020)
